Experimental data reported in paper doi:10.1101/2023.02.27.530350 (bioRxiv, 2023).
Where two headings read alike, the source gives them in different places. Results are given in words; binding and its absence hold for the method and conditions named. Binding seen in cells or lysates may run through a third protein. Some binding calls cover weakened binding; strength is not graded here. For part of these data: Where a sequence is shown, tags or fusion partners need not be part of it.

Sequences of proteins named here, by UniProt entry; tags and fusion partners are left off. A change or cut given only in a name is not applied to a line headed by its entry.
UniProt Q2FKN8, whole entry: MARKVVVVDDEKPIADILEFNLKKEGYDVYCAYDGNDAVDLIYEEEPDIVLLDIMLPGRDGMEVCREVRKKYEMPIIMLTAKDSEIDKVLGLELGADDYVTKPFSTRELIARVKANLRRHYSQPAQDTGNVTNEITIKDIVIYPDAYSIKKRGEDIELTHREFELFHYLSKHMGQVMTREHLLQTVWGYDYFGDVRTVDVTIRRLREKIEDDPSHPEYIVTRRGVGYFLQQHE

Legend:
Experiment in all cases: split reporter
[1] = biological target: T1, WalK-LgBIT (native WalK, sensor histidine kinase) (Staphylococcus aureus) (UniProt Q2FKN7)
T1 sequence: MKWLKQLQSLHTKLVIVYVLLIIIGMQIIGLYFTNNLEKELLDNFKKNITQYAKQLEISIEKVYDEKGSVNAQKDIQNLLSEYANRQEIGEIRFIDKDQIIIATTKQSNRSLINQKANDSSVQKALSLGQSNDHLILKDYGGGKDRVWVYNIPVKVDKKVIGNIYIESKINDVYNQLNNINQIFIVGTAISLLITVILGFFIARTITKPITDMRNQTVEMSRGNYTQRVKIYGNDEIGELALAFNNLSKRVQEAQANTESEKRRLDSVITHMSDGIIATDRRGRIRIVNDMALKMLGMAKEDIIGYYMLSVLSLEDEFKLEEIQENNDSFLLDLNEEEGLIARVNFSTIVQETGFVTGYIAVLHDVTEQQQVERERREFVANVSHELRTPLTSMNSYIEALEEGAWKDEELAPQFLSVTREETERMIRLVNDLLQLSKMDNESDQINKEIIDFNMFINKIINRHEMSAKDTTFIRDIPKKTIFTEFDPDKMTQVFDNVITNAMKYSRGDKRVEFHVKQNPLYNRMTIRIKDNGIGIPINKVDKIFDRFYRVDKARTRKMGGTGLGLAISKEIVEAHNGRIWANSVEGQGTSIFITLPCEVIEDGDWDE

[2] = biological target: WalK_(G223D)-LgBIT (Staphylococcus aureus) (UniProt Q2FKN7)
[3] = biological target: WalK_(T389A)-LgBIT (Staphylococcus aureus) (UniProt Q2FKN7)
[4] = biological target: T1, WalK-LgBIT (native WalK, sensor histidine kinase) (Staphylococcus aureus); remark: listed apart in the source
[5] = biological target: WalK_(G223D)-LgBIT (Staphylococcus aureus) (UniProt Q2FKN7); remark: listed apart in the source
[6] = biological target: WalK_(Y32C)-LgBIT (Staphylococcus aureus) (UniProt Q2FKN7)

Substance	binding [1]	binding [2]	binding [3]	binding [4]	binding [5]	binding [6]
WalR_(T101A)-SmBIT (from UniProt Q2FKN8 1-233)	binds					
WalR-SmBIT (native WalR, DNA binding response regulator) (from UniProt Q2FKN8 1-233)		binds	binds	binds	binds	binds
WalR_(D53A)-SmBIT (from UniProt Q2FKN8 1-233)	binds			binds		
WalR_(D53E)-SmBIT (from UniProt Q2FKN8 1-233)				binds		
